Data taken from doi:10.1101/304717.
Results are given in words; binding and its absence hold for the method and conditions named. Binding seen in cells or lysates may run through a third protein. A yes stands for co-enrichment or nearness to the bait. Other partners may have been found. No binding means not detected with the bait.

Chains of the proteins cited; added tags and fusions are not shown. Lines headed by an entry give the natural chain unless they say otherwise; changes in a name come on top.
UniProt P13569: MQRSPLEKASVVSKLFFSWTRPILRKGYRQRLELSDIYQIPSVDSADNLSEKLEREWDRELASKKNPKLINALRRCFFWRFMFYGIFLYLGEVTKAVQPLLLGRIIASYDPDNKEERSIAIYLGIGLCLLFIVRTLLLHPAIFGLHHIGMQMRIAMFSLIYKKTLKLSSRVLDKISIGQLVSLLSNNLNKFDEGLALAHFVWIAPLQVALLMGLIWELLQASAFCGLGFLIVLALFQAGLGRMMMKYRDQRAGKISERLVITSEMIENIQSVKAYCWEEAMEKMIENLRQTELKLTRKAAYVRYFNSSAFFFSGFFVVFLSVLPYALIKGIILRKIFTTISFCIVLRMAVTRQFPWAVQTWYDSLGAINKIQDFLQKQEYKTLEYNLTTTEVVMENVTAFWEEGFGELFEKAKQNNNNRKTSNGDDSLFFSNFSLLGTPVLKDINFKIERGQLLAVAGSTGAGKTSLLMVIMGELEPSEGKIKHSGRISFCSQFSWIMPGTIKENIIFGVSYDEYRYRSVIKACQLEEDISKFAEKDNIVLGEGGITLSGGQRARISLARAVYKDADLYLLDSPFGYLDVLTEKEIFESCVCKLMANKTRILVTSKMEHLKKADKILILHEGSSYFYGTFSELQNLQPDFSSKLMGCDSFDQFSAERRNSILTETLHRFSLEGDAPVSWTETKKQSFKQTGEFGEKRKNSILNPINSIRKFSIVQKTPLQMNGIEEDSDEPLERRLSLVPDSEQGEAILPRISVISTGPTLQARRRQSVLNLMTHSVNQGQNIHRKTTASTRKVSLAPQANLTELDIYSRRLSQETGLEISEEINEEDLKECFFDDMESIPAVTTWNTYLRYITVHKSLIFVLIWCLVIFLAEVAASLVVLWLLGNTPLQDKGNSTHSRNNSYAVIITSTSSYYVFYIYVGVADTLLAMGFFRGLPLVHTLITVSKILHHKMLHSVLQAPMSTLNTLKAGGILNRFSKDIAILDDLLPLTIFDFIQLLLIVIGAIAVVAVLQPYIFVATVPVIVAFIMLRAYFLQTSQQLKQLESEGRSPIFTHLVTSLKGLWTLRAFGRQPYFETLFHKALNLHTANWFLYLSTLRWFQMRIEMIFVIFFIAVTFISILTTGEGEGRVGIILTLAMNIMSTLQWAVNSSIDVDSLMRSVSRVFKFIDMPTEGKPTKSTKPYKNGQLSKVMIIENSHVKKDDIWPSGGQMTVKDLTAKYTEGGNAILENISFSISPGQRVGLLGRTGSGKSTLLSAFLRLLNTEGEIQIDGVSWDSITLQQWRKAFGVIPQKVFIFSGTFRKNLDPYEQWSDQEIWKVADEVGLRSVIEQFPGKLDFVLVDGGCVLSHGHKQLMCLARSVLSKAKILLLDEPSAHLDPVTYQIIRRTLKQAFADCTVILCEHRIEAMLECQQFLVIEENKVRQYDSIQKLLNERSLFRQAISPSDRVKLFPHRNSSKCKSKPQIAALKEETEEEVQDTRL
UniProt P26040: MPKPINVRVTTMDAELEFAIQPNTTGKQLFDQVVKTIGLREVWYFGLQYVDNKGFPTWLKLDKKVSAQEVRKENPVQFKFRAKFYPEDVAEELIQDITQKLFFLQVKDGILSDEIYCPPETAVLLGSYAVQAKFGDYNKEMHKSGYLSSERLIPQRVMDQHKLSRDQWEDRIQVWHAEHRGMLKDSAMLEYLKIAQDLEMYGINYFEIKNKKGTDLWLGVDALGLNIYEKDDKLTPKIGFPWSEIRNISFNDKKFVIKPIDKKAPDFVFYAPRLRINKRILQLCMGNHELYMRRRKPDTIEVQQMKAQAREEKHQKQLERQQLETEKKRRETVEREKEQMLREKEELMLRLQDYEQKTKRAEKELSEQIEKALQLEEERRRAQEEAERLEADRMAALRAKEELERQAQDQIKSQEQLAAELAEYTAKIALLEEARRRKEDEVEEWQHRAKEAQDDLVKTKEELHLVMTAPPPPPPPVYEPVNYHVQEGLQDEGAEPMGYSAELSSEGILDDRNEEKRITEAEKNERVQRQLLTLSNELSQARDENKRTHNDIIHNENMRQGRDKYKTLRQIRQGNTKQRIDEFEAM

Biological target: T1, mutant CFTR C-terminal peptide (1471-1480/4G), biotinylated (UniProt P13569)
T1 sequence (peptide, biotinylated (position not stated)): TEEEVQGGGG
Assay: affinity purification with mass spectrometry

binding: no binding
Substance: ezrin, mouse kidney (from UniProt P26040 1-586)
